Source: PubChem BioAssay AID1224826 (NIAID, 2016)

- Screen: 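Regulators of Tlr4 signalling leading to Tnf-alpha expression in macrophages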 (primary screen)
- Cells: RAW264.7 G9 macrophages from mouse bearing reporters for p65 (GFP) and the Tnf promoter (mCherry)
- Knock-down reagent: siRNA pool against mouse genes, 100 nM
- Time to read-out: 16 h of LPS stimulation, after 2 days of siRNA transfection
- Treatment: bacterial lipopolysaccharide (Salmonella minnesota R595), 10 ng/ml
- Detection: 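Imaged Tnf reporter mCherry in nuclei, minus background, normalised per plate to the median and expressed as robust z-scores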
- Reading the numbers: Tnf reporter robust z-score: higher = stronger Tnf promoter reporter signal after LPS; Tnf reporter intensity: higher = stronger Tnf promoter reporter signal
- Call rule: 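a well counts as active at a score of -1.3 or below (Tlr4 knock-down control median) or above 3 (raised signal); controls and wells holding fewer than 50 cells are excluded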
- Calls: active = Tnf reporter clearly lowered or raised; inactive = no clear change in Tnf reporter
The deposit covers about 17,000 reagents; shown is a part drawn at random. About 1,110 of all reagents (6.6%) count as active. 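Active means lowered or raised reporter signal; replicate intensities are raw and not normalised per plate.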 Unmarked entries are inactive.

no.	gene knocked down	Tnf reporter robust z-score	fewer than 50 cells in well	Tnf reporter intensity, replicate 1	Tnf reporter intensity, replicate 2
1	Rhot1		fewer than 50 cells per well; well left out of calls	142	121
2	Klf4	-0.24	enough cells in well	241	123
3	Insl6	-0.37	enough cells in well	200	139
4	Rgs19	-0.06	enough cells in well	246	92.3
5	Spatc1l	-0.46	enough cells in well	207	59.6
6	Dyrk4	1.51	enough cells in well	286	247
7	A730008H23Rik	0.09	enough cells in well	160	166
8	Foxd1	0.27	enough cells in well	283	254
9	Slc2a2	-0.32	enough cells in well	184	135
10	Arhgef9	-0.69	enough cells in well	91	173
11	Slco1a4	-0.22	enough cells in well	204	132
12	Wdr76	0.34	enough cells in well	181	170
13	Msh2	0.95	enough cells in well	375	249
14	Or8a1	0.6	enough cells in well	195	160
15	Ercc6l2	0.53	enough cells in well	327	86.1
16	Lrrc42	1.69	enough cells in well	213	301
17	Trip12	-1.27	enough cells in well	159	124
18	Mettl18	-0.52	enough cells in well	125	63.2
19	Eya4	-0.18	enough cells in well	211	221
20	Fgd5	0.97	enough cells in well	286	210
21	Ifi27l2a	-0.44	enough cells in well	112	159
22	Rbms1	0.64	enough cells in well	473	184
23	Gpr174	-0.96	enough cells in well	126	234
24	Mxi1	0.04	enough cells in well	256	218
25	Dalrd3	1.25	enough cells in well	229	230
26	Mucl2	2.79	enough cells in well	200	188
27	Aldoc	-0.68	enough cells in well	160	95.8
28	Igsf11	-1.22	enough cells in well	116	74.6
29	Serpinf1	-0.27	enough cells in well	304	153
30	Mkln1	-0.72	enough cells in well	146	53.5
31	Rbsn	-0.79	enough cells in well	65.4	121
32	Mrps14	1.83	enough cells in well	260	231
33	Fgf8	-1.53 (active)	enough cells in well	120	117
34	Tnfaip1	-1.02	enough cells in well	165	80.4
35	Alb	0.76	enough cells in well	212	212
36	Tep1	0.98	enough cells in well	298	186
37	Snx15		fewer than 50 cells per well; well left out of calls	22	41.8
38	Pcdhgb8	-1.18	enough cells in well	66.1	101
39	Ube2o		fewer than 50 cells per well; well left out of calls	95.4	140
40	Cnnm1	-0.64	enough cells in well	205	152
41	Pcsk6	1.17	enough cells in well	303	279
42	Sinhcaf	1.96	enough cells in well	165	181
43	Tmem123	-0.23	enough cells in well	171	117
44	Ncaph	-0.79	enough cells in well	139	98.2
45	Or5aq6	0.3	enough cells in well	195	175
46	Xrcc1	0	enough cells in well	233	225
47	Sost	-1.14	enough cells in well	188	119
48	Esam	0.64	enough cells in well	263	191
49	Rps20		fewer than 50 cells per well; well left out of calls	115	73.6
50	Mgarp	-0.24	enough cells in well	175	67
51	Rab5c	0.66	enough cells in well	373	253
52	Asb4	0.46	enough cells in well	192	196
53	Hey2	-0.43	enough cells in well	273	163
54	Ncr1	0.08	enough cells in well	317	172
55	Kcnj5	-0.22	enough cells in well	208	258
56	Fkbp10	1.03	enough cells in well	275	223
57	Reps1	0.18	enough cells in well	142	129
58	Baat	1.43	enough cells in well	182	286
59	Srm	-0.96	enough cells in well	172	160
60	Depdc1a	0.3	enough cells in well	251	230
61	Serpinb1c	0.82	enough cells in well	135	123
62	Atp1b2	-0.54	enough cells in well	166	109
63	Rgl2	-0.41	enough cells in well	270	174
64	Slc16a2	1.39	enough cells in well	120	179
65	2900005J15Rik	3.25 (active)	enough cells in well	368	139
66	Bmp5	-0.09	enough cells in well	117	189
67	Mob1a	1.73	enough cells in well	284	210
68	Pts	0.61	enough cells in well	387	237
69	Herc6	2.09	enough cells in well	281	255
70	Zbtb6	0.43	enough cells in well	177	185
71	Exoc3l	1.47	enough cells in well	248	261
72	Slc45a2	0.27	enough cells in well	275	234
73	Vmn1r216	1.84	enough cells in well	202	137
74	Chrna2	0.36	enough cells in well	303	207
75	Eif4a1	-1.52 (active)	enough cells in well	95.7	52

Quoted from the entries so far, 9 entries:
no.	gene knocked down	Tnf reporter robust z-score	fewer than 50 cells in well	Tnf reporter intensity, replicate 1	Tnf reporter intensity, replicate 2
28	Igsf11	-1.22	enough cells in well	116	74.6
29	Serpinf1	-0.27	enough cells in well	304	153
30	Mkln1	-0.72	enough cells in well	146	53.5
31	Rbsn	-0.79	enough cells in well	65.4	121
32	Mrps14	1.83	enough cells in well	260	231
33	Fgf8	-1.53 (active)	enough cells in well	120	117
34	Tnfaip1	-1.02	enough cells in well	165	80.4
35	Alb	0.76	enough cells in well	212	212
36	Tep1	0.98	enough cells in well	298	186
